Primary screen of a compound library

Data taken from ChEMBL document CHEMBL3988442, “University of Dundee, Small-Polar-MMV Screening Library” (2021).

Each number is a percent effect as filed. The controls that fix the scale are not given in the record; negative values are as filed. Compounds were drawn at random from those tested, without regard to their results. Two or more numbers in one place are separate tests of the same structure; such repeats can differ widely.

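Viability assay of Plasmodium falciparum sporozoites; the read-out is not stated. The concentration is filed as 10 mM, unlikely as a test dose, so the dose is not known. Higher reads as lower viability (inferred: compounds with an IC50 in retests scored well above the rest). Strong results were mostly tested again. About 34,000 compounds were tested under these conditions; 0.84% (about 280) showed 50% or more at least once.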

CC(C)(C)C(=O)NCCC(=O)NCCc1ccn(-c2ccccc2)n1 read 3.444%. With Cc1cc(C)cc(CCC(=O)N(C)CCc2cn[nH]c2)c1 the screen gave -21.42% & -12.38%. With Cc1csc(C2(NCc3ccc(OCC(F)F)cc3)CCCC2)n1 the screen gave -19.2%. CCn1nc(CC(C)C)cc1C(=O)N1C[C@H](O)[C@@H](N2CCCCC2)C1 gave -4.936%. Cc1noc(CN(Cc2ccc3c(c2)OCO3)Cc2ccc(C)o2)n1 gave -2.028% & 23.03% & 0.48%. CN(C)CCNCC1COCc2c(-c3ccnn3C)nnn2C1 (stereo not drawn) read 15.32%.

For O=C(O)C(F)(F)F.[H][C@@]12CN(Cc3ccco3)C[C@]1([H])C(=O)N(c1ccsc1)C2 the result was -8.918%. Result for Cc1cc(-c2cnc(NC3CCCC3)nc2-c2ccco2)on1 was -4.187%. Result for COc1cc(C)cc(C(C(=O)O)N(C)CCN2CCCC2)c1OC (stereo not drawn) was -1.599%. Cc1cccc(C(=O)Oc2cc(=O)n3cccc(C)c3n2)c1 gave 5.54%. CCc1cccc(N2CCC(NC(=O)CCNC(N)=O)CC2)c1 gave 1.952%. Result for O=C(c1cncnc1)N1Cc2ccccc2OC2(CCOCC2)C1 was 2.403%.

Result for O=C(Nc1ccc(Cl)cn1)c1nn(C2CCS(=O)(=O)C2)c2c1CCCC2 (stereo not drawn) was 72.26% & 68.39%. With CN(C)CCOCC1CN(CCN(C)C)Cc2ccnn2C1 (stereo not drawn) the screen gave -18.98%. With CC(C)c1noc(CN2CCN(C(=O)c3ccncc3F)CC2)n1 the screen gave 12.08%. O=C(O)C(F)(F)F.[H][C@@]12CCN(c3ncccn3)C[C@@]1([H])O[C@@H](C(=O)NCc1ccco1)C2 read 6.071%. With Cc1cc(-c2cnc(N3CCSCC3)nc2-c2ccc(C)s2)on1 the screen gave -8.033%. Result for COc1cc(CNCCc2cnn(C)c2)cc2c1OCO2 was 10.32%.

O=C(Nc1nccs1)N(CCO)Cc1ccsc1 read 5.606%. Result for CCc1nnc2n1CCN(C(=O)c1cc3ccc(C)cc3[nH]1)C2 was -3.123%. With O=C(O)C(F)(F)F.[H][C@@]12COC[C@]1([H])[C@@H](OCCN(C)C)CN2C(=O)c1cccs1 the screen gave -10.22%. CN1CCCN(S(C)(=O)=O)c2cc(F)ccc21 read -8.27%. CN(C)CCN1CCCC12CCCN(C(=O)c1cccnc1)C2.O=C(O)C(F)(F)F.O=C(O)C(F)(F)F (stereo not drawn) read -23.6% & -15.7% & -22.49%. Result for CCC(=O)N1CCN(CCn2cccn2)c2ncccc2C1.O=C(O)C(F)(F)F was -13.1% & -16.97% & 16.94%.

O=C(O)C(F)(F)F.O=C(O)C(F)(F)F.O=C(O)C(F)(F)F.[H][C@@]12CCN(Cc3cccnc3)C[C@]1([H])[C@@H](CN(C)Cc1ccco1)OC2 gave 2.706%. With CC(=O)N1CCOC(CCc2cc(-c3c(C)noc3C)ncn2)C1 (stereo not drawn) the screen gave 1.267%. With Cc1ccc(C)c(-n2ncc(C(=O)NCC3COC(C)(C)O3)c2N)c1 (stereo not drawn) the screen gave -15.16%. O=C(c1ccc(OCC2CC2)nc1)N1CCCC(n2ccnc2)C1 (stereo not drawn) read 4.67%. CC(C)c1ccc(CN2CCC3(CCCN(c4nncs4)C3)C2)cc1.O=C(O)C(F)(F)F (stereo not drawn) gave 0.9227%. COCC1CN(Cc2ccncc2)Cc2nn(CC3CC3)cc21.O=C(O)C(F)(F)F.O=C(O)C(F)(F)F (stereo not drawn) read 14.65%.

O=C(C1CCOC1)N1CC[C@@H](O)[C@@H]1Cc1ccccc1 (stereo partly drawn) read -2.625%. O=C(O)C(F)(F)F.O=C(O)C(F)(F)F.[H][C@@]12CCN(Cc3ccccn3)C[C@]1([H])OCCN(c1ccccc1)C2=O gave -5.816%. With Cc1n[nH]c(C)c1C1COCCN1C(=O)c1ccccc1 (stereo not drawn) the screen gave -4.509%. Result for COCCC(=O)N1Cc2ccccc2OC2(CCOCC2)C1 was -6.623%. With N#Cc1cn(C2CC2)c(=O)n(CC(O)c2ccc(Cl)cc2)c1=O (stereo not drawn) the screen gave 10.64%. CCN(CC)C(=O)CSc1nc2nc(C)ccc2o1 read -1.544%.

For O=C(NCc1nn(-c2ccccc2)c2c1CCC2)N1CCSCC1 the result was 4.831%. Result for Cc1cc(C)c(CNC(=O)NCC2COc3ccccc3C2)c(=O)[nH]1 (stereo not drawn) was 10.3%. For Cc1ccnc(NC(=O)CSCc2cccnc2)c1 the result was 65.53% & 89.16%. CN1CCC(Oc2ccc(-n3ccnc3-c3nccn3C)cc2)CC1 read 17.93% & -1.269%. Cc1nnc2n1CCN(Cc1csc(-c3ccc(F)cc3)n1)C2 read -10.78%. O=C(NCc1csc(Br)c1)c1ccncc1 read -10.98%.

With O=C(COCc1ccccc1)N1CCCC(n2cncn2)C1 (stereo not drawn) the screen gave -2.08%. Result for CCc1nc(CN2CCc3c(ncn3C3CC3)C2)cs1 was 5.353% & 19.86% & 28.83%. For O=C(NCCn1ccc(-c2ccccn2)n1)C1CC1 the result was -16.42%. For [H][C@@]12C[C@H](C(=O)NC)[C@@]([H])(CN(C(=O)NCCc3ccccc3)C1)O2 the result was -5.109%. With CCCC(=O)N1CCC(c2cc3cccnc3c(O)n2)CC1 the screen gave -3.684%. With Cn1cnc(S(=O)(=O)N2CCN(Cc3ccco3)CC2)c1Cl the screen gave -1.344%.

CCNC(=O)N1CCCCC1CCO (stereo not drawn) gave -9.059%. With c1cnc(CC2COCCN(C3CCCCC3)C2)cn1 (stereo not drawn) the screen gave 4.692%. Result for CS(=O)(=O)NC1CCc2c(ccc(=O)n2CC2CC2)C1 (stereo not drawn) was -10.03%. Result for [H][C@]12CCC[C@@]1(COc1ccccn1)CN(C(=O)Cc1ccccn1)C2 was -3.406%. COc1ccc(C(C#N)NC(=O)CC2=CCCCC2)c(OC)c1 (stereo not drawn) read -8.546%.

The first 7 entries again:

Compound	Percent Effect
CC(C)(C)C(=O)NCCC(=O)NCCc1ccn(-c2ccccc2)n1	3.444
Cc1cc(C)cc(CCC(=O)N(C)CCc2cn[nH]c2)c1	-21.42 & -12.38
Cc1csc(C2(NCc3ccc(OCC(F)F)cc3)CCCC2)n1	-19.2
CCn1nc(CC(C)C)cc1C(=O)N1C[C@H](O)[C@@H](N2CCCCC2)C1	-4.936
Cc1noc(CN(Cc2ccc3c(c2)OCO3)Cc2ccc(C)o2)n1	-2.028 & 23.03 & 0.48
CN(C)CCNCC1COCc2c(-c3ccnn3C)nnn2C1 (stereo not drawn)	15.32
O=C(O)C(F)(F)F.[H][C@@]12CN(Cc3ccco3)C[C@]1([H])C(=O)N(c1ccsc1)C2	-8.918